At least one peptide structure holds a part that was inferred or is arguable (an end, a ring closure or a residue). Where a SMILES comes first, the peptide text is derived from it.
Tested on: rat peritoneal mast cells
Assay: Histamine-releasing capacity of peptides on isolated rat peritoneal mast cells
Assay type: cell-based
[1] = Table 2, peptide concentration 10^-3 M (0 M gives 20)
[2] = Table 2, peptide concentration 10^-4 M (0 M gives 20)
[3] = Table 2, peptide concentration 10^-5 M (0 M gives 20)
[4] = Table 2, peptide concentration 10^-6 M (0 M gives 20)

CC(C)[C@@H]1NC(=O)[C@H](Cc2ccccc2)NC(=O)[C@H](Cc2ccccc2)NC(=O)CNC(=O)[C@H](CO)NC(=O)CNC(=O)[C@H](CCCCN)NC(=O)[C@H]([C@@H](C)O)NC(=O)[C@H](CCCCN)NC(=O)[C@@H](N)CSSC[C@@H](C(=O)O)NC(=O)[C@H](Cc2ccccc2)NC1=O [F40] (HELM PEPTIDE1{C.K.T.K.G.S.G.F.F.V.F.C}$PEPTIDE1,PEPTIDE1,1:R3-12:R3$$$V2.0)
histamine release activity compared with F30 at highest test dose (10^-3 M, in words): as active as the F30 peptide
% histamine release from rat mast cells [1]: 70%
% histamine release from rat mast cells [2]: 20%
% histamine release from rat mast cells [3]: 20%
% histamine release from rat mast cells [4]: 20%
histamine release compared with the linear form (F30) (in words): appreciably less histamine release

CC(C)[C@H](NC(=O)[C@H](Cc1ccccc1)NC(=O)[C@H](Cc1ccccc1)NC(=O)CNC(=O)[C@H](CO)NC(=O)CNC(=O)[C@H](CCCCN)NC(=O)[C@@H](NC(=O)[C@@H](N)CCCCN)[C@@H](C)O)C(=O)N[C@@H](Cc1ccccc1)C(N)=O [F30] (H-KTKGSGFFVF-NH2)
% histamine release from rat mast cells (Table 1, peptide (F30) concentration 10^-4 M): 70%
% histamine release from rat mast cells (Table 1, peptide (F30) concentration 10^-5 M): 50%
% histamine release from rat mast cells (Table 1, peptide (F30) concentration 10^-6 M): 15%
% histamine release from rat mast cells (Table 1, peptide (F30) concentration 10^-7 M): 10%
% histamine release from rat mast cells (Table 1, peptide (F30) concentration 10^-8 M): 15%
% histamine release from rat mast cells [1]: 70%
% histamine release from rat mast cells [2]: 40%
% histamine release from rat mast cells [3]: 20%
% histamine release from rat mast cells [4]: 20%
